From paper PMC5780470, “Copper(I)-binding properties of de-coppering drugs for the treatment of Wilson disease. α-Lipoic acid as a potential anti-copper agent” (Scientific Reports, 2018)

Tested on: Cox17 (Cu1Cox17, apo-Cox17_3S-S)
Test: ESI-MS demetallation of Cu1Cox17, hyperbolic fit
Assay type: binding
Conditions: C50 for Cu(I) extraction from 1 uM Cu1Cox17, reference chelator; 20 mM ammonium acetate, pH 7.3, 25 °C

Structure (SMILES): OC(CS)C(O)CS (stereo not shown) [DTT, dithiotreitol, reference compound]
- IC50: 3.1 ± 0.26 mM
